We go through two molecules from doi:10.1101/2025.04.01.645927.

Results are given in words; binding and its absence hold for the method and conditions named. Binding seen in cells or lysates may run through a third protein. Some binding calls cover weakened binding; strength is not graded here.

Assay [1] addresses T1, VE-cadherin (human (endogenous in hMVECs)) (UniProt P33151).
T1 sequence: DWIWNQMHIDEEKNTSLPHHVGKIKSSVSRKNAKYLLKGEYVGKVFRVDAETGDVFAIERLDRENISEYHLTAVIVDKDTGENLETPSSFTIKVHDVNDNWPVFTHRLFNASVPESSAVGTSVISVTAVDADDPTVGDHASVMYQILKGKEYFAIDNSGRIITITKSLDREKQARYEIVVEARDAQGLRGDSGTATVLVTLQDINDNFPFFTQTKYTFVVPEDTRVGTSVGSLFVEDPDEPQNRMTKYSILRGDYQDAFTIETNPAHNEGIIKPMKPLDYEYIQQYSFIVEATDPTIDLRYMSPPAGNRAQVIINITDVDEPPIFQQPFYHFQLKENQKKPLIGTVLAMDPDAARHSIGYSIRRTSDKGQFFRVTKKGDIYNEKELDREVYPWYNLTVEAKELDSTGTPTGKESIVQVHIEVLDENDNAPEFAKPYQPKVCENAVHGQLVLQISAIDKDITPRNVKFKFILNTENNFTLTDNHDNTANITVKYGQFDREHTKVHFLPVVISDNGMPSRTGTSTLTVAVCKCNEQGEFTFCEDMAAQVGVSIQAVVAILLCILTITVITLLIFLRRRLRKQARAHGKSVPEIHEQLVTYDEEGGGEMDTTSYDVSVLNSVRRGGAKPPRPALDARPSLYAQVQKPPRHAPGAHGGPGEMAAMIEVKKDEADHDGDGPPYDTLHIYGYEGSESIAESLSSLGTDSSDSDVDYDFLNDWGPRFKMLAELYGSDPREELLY
Nature of the assay: co-IP.

In assay [2] the target is T2, VE-cadherin (human (endogenous in hMVECs)), P33151.
T2 chain: T1 sequence
Nature of the assay: co-IP. Particulars: remark: other sources report otherwise.

B1: p120 catenin (protein, UniProt O60716 1-968)
chain: MDDSEVESTASILASVKEQEAQFEKLTRALEEERRHVSAQLERVRVSPQDANPLMANGTLTRRHQNGRFVGDADLERQKFSDLKLNGPQDHSHLLYSTIPRMQEPGQIVETYTEEDPEGAMSVVSVETSDDGTTRRTETTVKKVVKTVTTRTVQPVAMGPDGLPVDASSVSNNYIQTLGRDFRKNGNGGPGPYVGQAGTATLPRNFHYPPDGYSRHYEDGYPGGSDNYGSLSRVTRIEERYRPSMEGYRAPSRQDVYGPQPQVRVGGSSVDLHRFHPEPYGLEDDQRSMGYDDLDYGMMSDYGTARRTGTPSDPRRRLRSYEDMIGEEVPSDQYYWAPLAQHERGSLASLDSLRKGGPPPPNWRQPELPEVIAMLGFRLDAVKSNAAAYLQHLCYRNDKVKTDVRKLKGIPVLVGLLDHPKKEVHLGACGALKNISFGRDQDNKIAIKNCDGVPALVRLLRKARDMDLTEVITGTLWNLSSHDSIKMEIVDHALHALTDEVIIPHSGWEREPNEDCKPRHIEWESVLTNTAGCLRNVSSERSEARRKLRECDGLVDALIFIVQAEIGQKDSDSKLVENCVCLLRNLSYQVHREIPQAERYQEAAPNVANNTGPHAASCFGAKKGKDEWFSRGKKPIEDPANDTVDFPKRTSPARGYELLFQPEVVRIYISLLKESKTPAILEASAGAIQNLCAGRWTYGRYIRSALRQEKALSAIADLLTNEHERVVKAASGALRNLAVDARNKELIGKHAIPNLVKNLPGGQQNSSWNFSEDTVISILNTINEVIAENLEAAKKLRETQGIEKLVLINKSGNRSEKEVRAAALVLQTIWGYKELRKPLEKEGWKKSDFQVNLNNASRSQSSHSYDDSTLPLIDRNQKSDKKPDREEIQMSNMGSNTKSLDNNYSTPNERGDHNRTLDRSGDLGDMEPLKGTTPLMQDEGQESLEEELDVLVLDDEGGQVSYPSMQKI
With B1, the binding result in assay [1] is “binds”.

B2: β-catenin, P35222 1-781 (protein)
chain: MATQADLMELDMAMEPDRKAAVSHWQQQSYLDSGIHSGATTTAPSLSGKGNPEEEDVDTSQVLYEWEQGFSQSFTQEQVADIDGQYAMTRAQRVRAAMFPETLDEGMQIPSTQFDAAHPTNVQRLAEPSQMLKHAVVNLINYQDDAELATRAIPELTKLLNDEDQVVVNKAAVMVHQLSKKEASRHAIMRSPQMVSAIVRTMQNTNDVETARCTAGTLHNLSHHREGLLAIFKSGGIPALVKMLGSPVDSVLFYAITTLHNLLLHQEGAKMAVRLAGGLQKMVALLNKTNVKFLAITTDCLQILAYGNQESKLIILASGGPQALVNIMRTYTYEKLLWTTSRVLKVLSVCSSNKPAIVEAGGMQALGLHLTDPSQRLVQNCLWTLRNLSDAATKQEGMEGLLGTLVQLLGSDDINVVTCAAGILSNLTCNNYKNKMMVCQVGGIEALVRTVLRAGDREDITEPAICALRHLTSRHQEAEMAQNAVRLHYGLPVVVKLLHPPSHWPLIKATVGLIRNLALCPANHAPLREQGAIPRLVQLLVRAHQDTQRRTSMGGTQQQFVEGVRMEEIVEGCTGALHILARDVHNRIVIRGLNTIPLFVQLLYSPIENIQRVAAGVLCELAQDKEAAEAIEAEGATAPLTELLHSRNEGVATYAAAVLFRMSEDKPQDYKKRLSVELTSSLFRTEPMAWNETADLGLDIGAQGEPLGYRQDDPSYRSFHSGGYGQDALGMDPMMEHEMGGHHPGADYPVDGLPDLGHAQDLMDGLPPGDSNQLAWFDTDL
Consider B2, for which the binding entry in assay [2] was “binds”.
